These are yes or no findings as the source states them, for the method shown. Binding seen in cells or lysates may run through a third protein. Some results given as binding are weak or reduced against the parent protein; the word gives no strength.
Key:
[1] = biological target: BiP/GRP78 (endogenous) (human (endogenous in human HeLa cells)) (UniProt P11021); experiment: co-IP with BiP/GRP78 antibodies, HeLa cells infected with Ad.M4 (FIG. 11A)
[2] = biological target: BiP/GRP78 (endogenous) (human (endogenous in human HeLa cells)) (UniProt P11021); experiment: summary of the co-IP experiments of Example 2
[3] = biological target: BiP/GRP78 (endogenous) (human (endogenous in human HeLa cells)) (UniProt P11021); experiment: co-IP with BiP/GRP78 antibodies after adenovirus transduction

Protein sequences, listed by entry. Tags and fused reporters are not part of them. Lines headed by an entry give the natural chain unless they say otherwise; changes in a name come on top. Residues count along the entry.
UniProt P11021, residues 19-654: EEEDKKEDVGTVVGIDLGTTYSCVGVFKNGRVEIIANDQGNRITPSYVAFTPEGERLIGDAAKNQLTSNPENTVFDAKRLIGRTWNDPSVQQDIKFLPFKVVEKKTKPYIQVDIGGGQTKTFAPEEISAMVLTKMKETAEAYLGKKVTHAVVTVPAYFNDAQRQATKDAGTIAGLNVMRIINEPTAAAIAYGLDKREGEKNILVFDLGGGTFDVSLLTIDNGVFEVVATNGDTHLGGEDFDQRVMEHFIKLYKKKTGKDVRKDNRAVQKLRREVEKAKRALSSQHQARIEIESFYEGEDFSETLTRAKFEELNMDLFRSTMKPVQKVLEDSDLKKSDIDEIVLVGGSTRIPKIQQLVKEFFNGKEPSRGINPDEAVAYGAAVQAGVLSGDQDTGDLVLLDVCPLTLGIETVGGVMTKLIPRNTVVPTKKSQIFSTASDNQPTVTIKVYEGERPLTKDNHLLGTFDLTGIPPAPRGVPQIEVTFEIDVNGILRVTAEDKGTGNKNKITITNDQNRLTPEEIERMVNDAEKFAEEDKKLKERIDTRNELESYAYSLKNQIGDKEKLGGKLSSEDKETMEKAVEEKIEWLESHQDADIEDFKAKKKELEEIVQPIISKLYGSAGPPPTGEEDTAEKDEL
UniProt Q13007: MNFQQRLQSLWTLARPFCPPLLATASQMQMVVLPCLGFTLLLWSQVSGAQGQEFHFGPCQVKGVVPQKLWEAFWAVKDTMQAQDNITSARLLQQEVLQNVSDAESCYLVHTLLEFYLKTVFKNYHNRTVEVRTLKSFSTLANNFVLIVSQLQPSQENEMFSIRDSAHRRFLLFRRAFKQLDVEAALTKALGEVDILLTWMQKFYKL

Measured: binding

M4 (MDA-7/IL-24 deletion mutant, amino acids 104-206, untagged) (from UniProt Q13007 104-206)
binds: all assays above
